Publication PMC4934914
No constants are given. Whether binding was seen depends on the method and setting. Some results given as binding are weak or reduced against the parent protein; the word gives no strength.

By UniProt entry, the sequences of proteins in these tests, tags left out. Where a name states a change or a piece, a line headed by the entry shows the natural chain unless it says otherwise.
UniProt O32164: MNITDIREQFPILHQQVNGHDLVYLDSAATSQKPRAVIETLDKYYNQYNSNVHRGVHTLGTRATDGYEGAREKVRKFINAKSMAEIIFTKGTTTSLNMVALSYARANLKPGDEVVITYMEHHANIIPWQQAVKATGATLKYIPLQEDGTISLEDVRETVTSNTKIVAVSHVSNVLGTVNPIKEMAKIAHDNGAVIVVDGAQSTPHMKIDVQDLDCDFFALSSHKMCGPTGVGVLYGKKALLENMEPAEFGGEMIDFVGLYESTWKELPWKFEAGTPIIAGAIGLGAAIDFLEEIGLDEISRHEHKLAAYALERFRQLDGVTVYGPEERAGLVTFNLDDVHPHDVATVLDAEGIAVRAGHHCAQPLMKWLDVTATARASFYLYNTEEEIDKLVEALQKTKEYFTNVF

Target: T1, Bacillus subtilis frataxin homolog Fra (Bacillus subtilis) (UniProt Q797E6)
T1 sequence: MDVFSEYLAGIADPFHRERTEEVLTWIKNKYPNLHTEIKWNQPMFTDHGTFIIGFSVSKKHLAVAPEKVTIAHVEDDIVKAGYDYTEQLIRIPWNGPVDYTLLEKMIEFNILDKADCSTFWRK
Assay: HDX-MS; 60 μM of each component in 25 mM Tris-Cl pH 7.5, 100 mM NaCl; exchange in D2O buffer at 25°C for 15, 30, 60 or 600 s; online pepsin digestion; both purified

## BsSufS/BsSufU complex (from UniProt O32164 1-406; O32163 1-147)
  binding: binds
